Literature values as cited in patent US6979463B2, “Stable extended release oral dosage composition” (Schering Corporation, priority 1999, dated 2005).

What was measured:
cells of human origin = conditions: in vitro, mainly cells of human origin; independent of the H1-antagonist effect
[1] = system: seasonal allergic rhinitis patients; conditions: adult and adolescent patients; 4 double-blind, randomized clinical trials

In the case of `Clc1ccc2c(c1)CCc1cccnc1C2=C1CCNCC1` [desloratadine], the “inhibition of events in the cascade of allergic inflammation” value (cells of human origin) is given as “can inhibit many events in the cascade of allergic inflammation” and the “clinical efficacy in seasonal rhinitis” value [1] is given as “demonstrated the efficacy”.
